Source: PubChem BioAssay AID1224830 (NIAID, 2016)

Aim: 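Genes whose knock-down alters the TNF-alpha reporter response to LPS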 (primary screen)
Cell system: human THP-1 monocytic leukaemia cells, TNF dual-luciferase reporter clone, PMA-differentiated to macrophage-like cells
Reagents: siRNA pool against human genes, 50 nM
Timing: LPS for 4 h, given about 3 days after siRNA transfection
Challenge: bacterial LPS (TLR4 ligand), 10 ng/ml
Measurement: 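Ratio of firefly to renilla light, scaled to the plate median and expressed as a robust z-score per replicate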
Scale: TNF reporter robust z-score: higher = stronger TNF reporter response to LPS
Call rule: 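Each well counts as active if its z-score is over 2.8 or under -1.5; controls are left without a call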
Here is one part, drawn at random, of about 18,000 reagents tested. About 2,900 of them (16%) were called active. 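Calls are made per well; low scores hint the gene aids the LPS response, high scores that it dampens it.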 Repeated entries: four replicate wells of each siRNA pool. No sequences are given here.

Gene	TNF reporter robust z-score	Call
CTCF	0.17	inactive
CTCF	1.26	inactive
CTCF	0.46	inactive
CTCF	2.37	inactive
GALM	-2.14	active
GALM	-0.72	inactive
GALM	0.33	inactive
GALM	0.14	inactive
IDH3A	-0.29	inactive
IDH3A	-0.93	inactive
IDH3A	-0.48	inactive
IDH3A	-0.99	inactive
MAP3K7	-1.31	inactive
MAP3K7	-1.95	active
MAP3K7	-1.62	active
CFAP107	-1.11	inactive
CFAP107	-1.4	inactive
CFAP107	-1.49	inactive
CFAP107	-0.92	inactive
OTUB1	-1.04	inactive
OTUB1	-0.53	inactive
OTUB1	-0.95	inactive
OTUB1	-1.02	inactive
VMO1	1.16	inactive
VMO1	0.66	inactive
VMO1	0.2	inactive
VMO1	1.31	inactive
LUC7L2	0.48	inactive
LUC7L2	0.36	inactive
LUC7L2	0.08	inactive
LUC7L2	0.63	inactive
OTULINL	2.07	inactive
OTULINL	0.13	inactive
OTULINL	-0.01	inactive
OTULINL	-0.1	inactive
HSD17B3	0.73	inactive
HSD17B3	0.95	inactive
HSD17B3	-0.71	inactive
HSD17B3	0.06	inactive
LGALS3	0	inactive
LGALS3	0.8	inactive
LGALS3	0.3	inactive
LGALS3	1.18	inactive
LCE3E	-1.24	inactive
LCE3E	-0.64	inactive
LCE3E	-0.91	inactive
LCE3E	0.04	inactive
ATXN2L	0.12	inactive
ATXN2L	-0.21	inactive
ATXN2L	-0.14	inactive
ATXN2L	0.29	inactive
CPSF7	1.63	inactive
CPSF7	0.66	inactive
CPSF7	0.43	inactive
CPSF7	1.02	inactive
MCRIP1	0.86	inactive
MCRIP1	0.52	inactive
MCRIP1	-1.76	active
MCRIP1	0.16	inactive
NEK6	0.38	inactive
NEK6	1.05	inactive
NEK6	0.67	inactive
NEK6	3.54	active
PALS1	20.6	active
PALS1	-0.31	inactive
PALS1	-1.26	inactive
PALS1	-0.46	inactive
GET1	-0.48	inactive
GET1	-0.04	inactive
GET1	-0.34	inactive
GET1	-0.52	inactive
TSGA13	1.51	inactive
TSGA13	1.5	inactive
TSGA13	0.65	inactive
TSGA13	0.84	inactive

Called active, of those listed so far:
Gene	TNF reporter robust z-score	Call
GALM	-2.14	active
MAP3K7	-1.95	active
MAP3K7	-1.62	active
MCRIP1	-1.76	active
NEK6	3.54	active
PALS1	20.6	active
